# Test results taken from the supplement of paper PMC6411743.
# Amino acid sequences for entries named in this document (tags omitted). A change or cut given only in a name is not applied to a line headed by its entry.
# UniProt P49792, whole entry: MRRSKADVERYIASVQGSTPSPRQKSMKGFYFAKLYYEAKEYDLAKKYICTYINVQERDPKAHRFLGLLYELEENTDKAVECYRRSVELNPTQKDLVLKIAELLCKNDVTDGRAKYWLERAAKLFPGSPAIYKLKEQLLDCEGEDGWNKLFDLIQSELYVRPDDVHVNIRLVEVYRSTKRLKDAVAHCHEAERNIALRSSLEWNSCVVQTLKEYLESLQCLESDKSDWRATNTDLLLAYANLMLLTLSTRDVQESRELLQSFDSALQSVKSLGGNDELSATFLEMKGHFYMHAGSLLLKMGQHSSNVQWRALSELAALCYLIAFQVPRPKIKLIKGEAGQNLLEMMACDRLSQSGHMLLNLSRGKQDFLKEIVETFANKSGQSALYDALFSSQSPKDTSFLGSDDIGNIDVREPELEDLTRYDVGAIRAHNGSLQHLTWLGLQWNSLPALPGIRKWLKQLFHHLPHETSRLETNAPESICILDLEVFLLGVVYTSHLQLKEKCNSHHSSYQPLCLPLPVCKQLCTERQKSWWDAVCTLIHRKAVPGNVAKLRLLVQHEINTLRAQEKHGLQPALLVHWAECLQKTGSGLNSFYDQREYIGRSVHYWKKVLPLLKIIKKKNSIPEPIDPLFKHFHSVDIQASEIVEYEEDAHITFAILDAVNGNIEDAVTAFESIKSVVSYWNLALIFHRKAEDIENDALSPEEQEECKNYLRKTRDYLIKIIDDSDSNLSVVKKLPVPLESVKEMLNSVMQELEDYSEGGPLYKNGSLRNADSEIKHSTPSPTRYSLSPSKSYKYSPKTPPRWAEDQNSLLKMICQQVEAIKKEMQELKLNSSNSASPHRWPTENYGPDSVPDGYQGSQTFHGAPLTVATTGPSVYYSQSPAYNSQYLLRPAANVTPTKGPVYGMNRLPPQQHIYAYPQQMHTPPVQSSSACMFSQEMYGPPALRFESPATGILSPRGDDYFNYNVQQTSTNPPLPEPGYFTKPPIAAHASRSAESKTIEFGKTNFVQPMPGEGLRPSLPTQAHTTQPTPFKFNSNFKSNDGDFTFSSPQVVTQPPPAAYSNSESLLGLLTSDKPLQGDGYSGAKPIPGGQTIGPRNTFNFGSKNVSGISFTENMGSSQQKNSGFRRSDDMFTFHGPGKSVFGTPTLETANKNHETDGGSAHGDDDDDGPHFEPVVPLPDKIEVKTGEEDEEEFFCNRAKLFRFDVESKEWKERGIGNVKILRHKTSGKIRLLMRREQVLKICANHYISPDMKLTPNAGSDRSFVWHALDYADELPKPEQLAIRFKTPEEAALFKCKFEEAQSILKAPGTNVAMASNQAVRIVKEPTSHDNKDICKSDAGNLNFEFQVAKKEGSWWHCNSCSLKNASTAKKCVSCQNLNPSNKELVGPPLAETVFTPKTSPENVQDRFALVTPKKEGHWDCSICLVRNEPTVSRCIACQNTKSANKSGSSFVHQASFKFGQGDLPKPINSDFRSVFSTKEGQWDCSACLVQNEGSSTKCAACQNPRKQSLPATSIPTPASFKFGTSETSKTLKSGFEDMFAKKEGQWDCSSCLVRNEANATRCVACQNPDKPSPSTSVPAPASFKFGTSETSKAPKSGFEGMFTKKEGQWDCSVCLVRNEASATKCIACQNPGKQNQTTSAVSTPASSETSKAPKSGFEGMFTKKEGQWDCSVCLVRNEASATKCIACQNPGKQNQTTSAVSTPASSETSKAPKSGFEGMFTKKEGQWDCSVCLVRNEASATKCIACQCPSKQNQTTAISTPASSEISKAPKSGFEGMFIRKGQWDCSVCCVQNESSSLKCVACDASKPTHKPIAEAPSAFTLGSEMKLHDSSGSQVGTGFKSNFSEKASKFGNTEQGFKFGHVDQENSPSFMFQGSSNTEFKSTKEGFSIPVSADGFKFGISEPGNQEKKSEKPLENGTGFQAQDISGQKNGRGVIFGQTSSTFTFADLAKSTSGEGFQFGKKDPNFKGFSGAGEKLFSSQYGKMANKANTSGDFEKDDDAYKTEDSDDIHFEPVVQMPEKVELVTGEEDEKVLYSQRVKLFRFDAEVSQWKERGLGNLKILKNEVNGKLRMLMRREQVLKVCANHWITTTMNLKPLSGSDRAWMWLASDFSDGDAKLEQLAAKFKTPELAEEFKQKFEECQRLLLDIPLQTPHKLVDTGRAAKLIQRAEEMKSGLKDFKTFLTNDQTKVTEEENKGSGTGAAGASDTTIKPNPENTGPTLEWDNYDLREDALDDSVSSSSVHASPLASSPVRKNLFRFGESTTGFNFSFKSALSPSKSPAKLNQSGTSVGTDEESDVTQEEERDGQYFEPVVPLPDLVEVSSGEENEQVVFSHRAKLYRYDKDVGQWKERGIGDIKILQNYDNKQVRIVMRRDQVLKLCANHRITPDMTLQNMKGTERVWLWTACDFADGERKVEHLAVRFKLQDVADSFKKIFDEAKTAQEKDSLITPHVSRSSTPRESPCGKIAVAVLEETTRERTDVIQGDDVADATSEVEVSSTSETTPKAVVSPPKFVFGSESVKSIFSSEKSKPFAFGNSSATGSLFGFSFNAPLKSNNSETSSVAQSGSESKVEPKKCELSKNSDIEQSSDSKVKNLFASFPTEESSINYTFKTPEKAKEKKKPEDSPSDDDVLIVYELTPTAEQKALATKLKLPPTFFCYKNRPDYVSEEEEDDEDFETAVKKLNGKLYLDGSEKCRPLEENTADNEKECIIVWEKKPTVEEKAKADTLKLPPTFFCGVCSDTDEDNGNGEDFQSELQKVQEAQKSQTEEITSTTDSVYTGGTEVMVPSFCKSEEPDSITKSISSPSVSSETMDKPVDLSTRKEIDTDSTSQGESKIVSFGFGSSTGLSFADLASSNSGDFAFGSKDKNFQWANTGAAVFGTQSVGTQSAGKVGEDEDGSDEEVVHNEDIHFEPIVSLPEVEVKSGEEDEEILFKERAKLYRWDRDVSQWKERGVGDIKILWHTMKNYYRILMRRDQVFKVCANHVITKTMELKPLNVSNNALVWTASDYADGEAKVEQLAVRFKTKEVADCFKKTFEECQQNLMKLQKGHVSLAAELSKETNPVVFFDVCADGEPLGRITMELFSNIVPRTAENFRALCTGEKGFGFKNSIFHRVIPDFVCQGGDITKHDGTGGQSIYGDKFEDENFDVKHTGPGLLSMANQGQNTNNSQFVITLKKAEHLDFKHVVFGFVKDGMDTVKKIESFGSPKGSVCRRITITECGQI
# UniProt P36402, whole entry: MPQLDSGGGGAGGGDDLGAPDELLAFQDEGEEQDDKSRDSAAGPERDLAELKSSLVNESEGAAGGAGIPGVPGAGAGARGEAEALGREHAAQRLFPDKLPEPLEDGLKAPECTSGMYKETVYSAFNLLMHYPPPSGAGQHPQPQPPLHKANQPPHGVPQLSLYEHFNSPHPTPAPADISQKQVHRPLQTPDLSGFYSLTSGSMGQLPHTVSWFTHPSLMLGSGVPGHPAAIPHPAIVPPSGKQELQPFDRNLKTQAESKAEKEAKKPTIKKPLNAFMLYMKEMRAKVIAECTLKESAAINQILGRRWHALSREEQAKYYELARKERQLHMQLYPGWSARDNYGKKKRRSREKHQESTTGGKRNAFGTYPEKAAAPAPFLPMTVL
# UniProt P40818: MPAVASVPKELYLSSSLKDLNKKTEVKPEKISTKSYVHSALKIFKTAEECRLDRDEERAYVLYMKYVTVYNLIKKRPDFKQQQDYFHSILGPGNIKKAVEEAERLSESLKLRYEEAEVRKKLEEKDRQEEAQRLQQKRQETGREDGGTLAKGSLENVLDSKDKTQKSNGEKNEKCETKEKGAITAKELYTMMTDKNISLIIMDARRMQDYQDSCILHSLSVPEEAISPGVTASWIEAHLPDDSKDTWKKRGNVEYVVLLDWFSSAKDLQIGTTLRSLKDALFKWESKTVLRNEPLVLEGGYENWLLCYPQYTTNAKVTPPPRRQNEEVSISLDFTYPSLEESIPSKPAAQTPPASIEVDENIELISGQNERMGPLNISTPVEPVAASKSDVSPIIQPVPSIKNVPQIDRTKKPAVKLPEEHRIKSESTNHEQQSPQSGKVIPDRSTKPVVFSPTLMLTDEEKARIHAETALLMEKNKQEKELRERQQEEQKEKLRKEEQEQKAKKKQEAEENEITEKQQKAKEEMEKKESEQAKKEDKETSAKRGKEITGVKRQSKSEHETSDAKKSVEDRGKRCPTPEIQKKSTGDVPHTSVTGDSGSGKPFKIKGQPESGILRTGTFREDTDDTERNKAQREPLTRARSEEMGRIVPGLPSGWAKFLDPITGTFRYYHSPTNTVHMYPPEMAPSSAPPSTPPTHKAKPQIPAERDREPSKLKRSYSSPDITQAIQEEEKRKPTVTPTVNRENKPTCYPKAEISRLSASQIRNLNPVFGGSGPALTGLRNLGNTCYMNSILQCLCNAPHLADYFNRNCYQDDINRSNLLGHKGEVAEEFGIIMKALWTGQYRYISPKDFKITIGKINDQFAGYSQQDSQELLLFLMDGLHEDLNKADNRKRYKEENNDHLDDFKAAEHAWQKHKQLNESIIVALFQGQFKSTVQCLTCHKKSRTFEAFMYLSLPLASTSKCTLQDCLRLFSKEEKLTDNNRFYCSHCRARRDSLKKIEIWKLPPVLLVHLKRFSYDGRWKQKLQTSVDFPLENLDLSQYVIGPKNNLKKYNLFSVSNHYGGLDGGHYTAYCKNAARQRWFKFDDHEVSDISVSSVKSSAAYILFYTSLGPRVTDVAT
# ± gives the standard deviation of the averaged measurements. Some of the results follow.
# Compound: Nc1nc2c(ncn2[C@@H]2O[C@H](COP(=O)(O)OP(=O)(O)OP(=O)(O)O)[C@@H](O)[C@H]2O)c(=O)[nH]1 [guanosine triphosphate]
# Assay: NP40-soluble protein abundance relative to vehicle (solubility fold change) (ratio); higher = more soluble protein in presence of GTP
# Description: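 Solubility proteome profiling in Jurkat crude lysate. Lysate was treated with Mg-GTP (0.1-10 mM) for 10 min at room temperature and 3 min at 37 °C, then solubilised with 0.8% NP40 and benzonase, followed by ultracentrifugation. Proteins were quantified by TMT10 LC-MS/MS; the value is the NP40-soluble abundance relative to the NP40-processed vehicle, from 3 independent experiments.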
Target,NP40-soluble protein abundance (concentration: 0.1mM),NP40-soluble protein abundance (concentration: 0.5mM),NP40-soluble protein abundance (concentration: 1mM),NP40-soluble protein abundance (concentration: 2mM),NP40-soluble protein abundance (concentration: 4mM),NP40-soluble protein abundance (concentration: 6mM),NP40-soluble protein abundance (concentration: 8mM),NP40-soluble protein abundance (concentration: 10mM)
DNAJA1 (UniProt P31689),0.964 ± 0.075,1.02 ± 0.072,1.02 ± 0.1,1.04 ± 0.086,1.05 ± 0.096,1.07 ± 0.097,1.07 ± 0.1,1.03 ± 0.071
RANBP2 (UniProt P49792),1.02 ± 0.013,1.06 ± 0.021,1.06 ± 0.024,1.08 ± 0.057,1.14 ± 0.073,1.18 ± 0.091,1.25 ± 0.13,1.26 ± 0.12
UniProt P36402-5,0.999 ± 0.14,0.942 ± 0.087,1.13 ± 0.28,1.14 ± 0.16,1.1 ± 0.15,1.14 ± 0.16,1.16 ± 0.16,1.29 ± 0.25
USP8 (UniProt P40818),1.02 ± 0.039,1 ± 0.049,0.984 ± 0.048,0.949 ± 0.059,0.961 ± 0.053,0.953 ± 0.044,1.01 ± 0.063,0.94 ± 0.065
ATRX (UniProt P46100),0.951 ± 0.068,0.944 ± 0.065,1.01 ± 0.051,0.995 ± 0.066,1.04 ± 0.036,1.05 ± 0.031,1.12 ± 0.063,1.14 ± 0.099
